Measured values reported in US20170340698A1, “CYCLIC PEPTIDE SPECIFICALLY BINDING TO APOPTOTIC CELLS AND USE THEREOF” (KYUNGPOOK NATIONAL UNIVERSITY INDUSTRY-ACADEMIC COOPERATION …, priority 2014, published 2017).
At least one peptide structure holds a part that was inferred or is arguable (an end, a ring closure or a residue). Residues, ends and D or L forms follow the SMILES beside them.

Legend:
[1] = system: SNU16 human stomach cancer cell line; assay: In vitro binding of FITC-conjugated peptides to apoptotic cells, flow cytometry; assay type: cell-based; conditions: fluorescent probe
Experimental: SNU16 human stomach cancer cell line was purchased from KCLB (Seoul, Korea). […] After treatment, cells were incubated with fluorescein isothiocyanate (FITC)-conjugated linear or cyclic form of ApoPep-1 peptide at 4[…] for 1 hour. As control, cells were stained with Alexa488-conjugated annexin V (Life technologies, Carlsbad, Calif.) for 15 min at room temperature. Percentages of fluorescent (the liner or cyclic form of ApoPep-1 peptide-bound or annexin V-bound fluorescence) cells were calculated by measurement and analysis methods through the selection of the fluorescent signals (the liner or cyclic form of ApoPep-1 peptide-bound or annexin V-bound fluorescence), which were shown in the respective cells when cells in an emulsion state pass through a constant fluorescence detection zone, using flow cytometry (Fluorescence-activated cell sorting (FACS), FACS calibur, BD Biosciences, MA, USA).
Cyclic form of ApoPep-1 (cyclo[CQRPPRC] peptide of the present invention) was prepared by adding cysteine residue at the carboxy terminal of linear form of ApoPep-1 (CQRPPR) and performing cyclization through disulfide bonding.

[2] = system: SNU-16 stomach tumor xenografts; assay: In vivo NIR fluorescence imaging of tumor apoptosis with FPR675-labeled ApoPep-1; parameters: species or system mice; conditions: whole body NIR fluorescence images

## N=C(N)NCCC[C@H](NC(=O)[C@@H]1CCCN1C(=O)[C@@H]1CCCN1C(=O)[C@H](CCCNC(=N)N)NC(=O)[C@H](CCC(N)=O)NC(=O)[C@@H](N)CS)C(=O)O [linear form of ApoPep-1, CQRPPR] (H-CQRPPR-OH; N-terminus and C-terminus assumed)
[1]; SNU16 cells treated with cetuximab alone (200 ug/ml) for 24 hours
  percentage of apoptotic cells detected: ~25%
[1]; SNU16 cells treated with cisplatin (300 ng/ml) plus cetuximab in combination for 24 hours
  percentage of apoptotic cells detected: ~34%
[1]; SNU16 cells treated with cisplatin alone (300 ng/ml) for 24 hours
  percentage of apoptotic cells detected: approximately 28%
[2]
  background fluorescence signals in other organs, including the liver and lung: Weak background fluorescence signals
